The target in this experiment is T1, USP43 as used in the immunoprecipitation with SLC7A11 (Fig. S3B) (human), Q70EL4.
T1 chain: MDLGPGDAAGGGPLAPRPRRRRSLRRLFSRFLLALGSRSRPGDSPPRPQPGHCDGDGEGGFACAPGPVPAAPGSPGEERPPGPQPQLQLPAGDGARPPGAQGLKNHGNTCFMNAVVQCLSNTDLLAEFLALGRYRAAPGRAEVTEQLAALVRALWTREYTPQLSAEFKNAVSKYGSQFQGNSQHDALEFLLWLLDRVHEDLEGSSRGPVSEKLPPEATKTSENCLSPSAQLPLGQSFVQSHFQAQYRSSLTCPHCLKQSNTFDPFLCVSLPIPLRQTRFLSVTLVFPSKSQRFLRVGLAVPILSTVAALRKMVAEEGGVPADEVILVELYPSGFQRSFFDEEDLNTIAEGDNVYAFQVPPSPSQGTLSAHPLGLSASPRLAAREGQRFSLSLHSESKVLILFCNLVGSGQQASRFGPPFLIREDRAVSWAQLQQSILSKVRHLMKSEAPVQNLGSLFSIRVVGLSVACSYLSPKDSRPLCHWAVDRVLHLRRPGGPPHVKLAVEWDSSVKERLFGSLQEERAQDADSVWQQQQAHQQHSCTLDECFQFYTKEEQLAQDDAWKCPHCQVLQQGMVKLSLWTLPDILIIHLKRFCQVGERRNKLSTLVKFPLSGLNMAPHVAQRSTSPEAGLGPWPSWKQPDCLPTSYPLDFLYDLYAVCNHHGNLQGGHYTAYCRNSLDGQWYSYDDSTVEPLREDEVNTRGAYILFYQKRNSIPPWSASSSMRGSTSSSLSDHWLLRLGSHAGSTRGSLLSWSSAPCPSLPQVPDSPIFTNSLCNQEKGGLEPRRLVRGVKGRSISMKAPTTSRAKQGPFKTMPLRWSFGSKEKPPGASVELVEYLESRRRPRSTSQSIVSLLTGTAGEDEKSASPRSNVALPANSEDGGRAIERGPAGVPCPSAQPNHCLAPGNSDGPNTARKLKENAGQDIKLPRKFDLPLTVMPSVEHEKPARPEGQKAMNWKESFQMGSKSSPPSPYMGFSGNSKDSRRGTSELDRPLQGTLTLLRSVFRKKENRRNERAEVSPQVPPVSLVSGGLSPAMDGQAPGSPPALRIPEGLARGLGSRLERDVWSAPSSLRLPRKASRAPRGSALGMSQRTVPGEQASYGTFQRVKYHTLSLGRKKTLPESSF
The experiment is described as follows: co-IP; immunoprecipitation to test USP43 with SLC7A11 (Fig. S3B); cells and antibodies not given. The note with it: remark: other sources report otherwise.

Consider one molecule from PMC12402158.

These are yes or no findings as the source states them, for the method shown. In cells and extracts the contact can be indirect.

B1: SLC7A11 (solute carrier family 7 member 11), Q9UPY5 1-501 (protein)
chain: MVRKPVVSTISKGGYLQGNVNGRLPSLGNKEPPGQEKVQLKRKVTLLRGVSIIIGTIIGAGIFISPKGVLQNTGSVGMSLTIWTVCGVLSLFGALSYAELGTTIKKSGGHYTYILEVFGPLPAFVRVWVELLIIRPAATAVISLAFGRYILEPFFIQCEIPELAIKLITAVGITVVMVLNSMSVSWSARIQIFLTFCKLTAILIIIVPGVMQLIKGQTQNFKDAFSGRDSSITRLPLAFYYGMYAYAGWFYLNFVTEEVENPEKTIPLAICISMAIVTIGYVLTNVAYFTTINAEELLLSNAVAVTFSERLLGNFSLAVPIFVALSCFGSMNGGVFAVSRLFYVASREGHLPEILSMIHVRKHTPLPAVIVLHPLTMIMLFSGDLDSLLNFLSFARWLFIGLAVAGLIYLRYKCPDMHRPFKVPLFIPALFSFTCLFMVALSLYSDPFSTGIGFVITLTGVPAYYLFIIWDKKPRWFRIMSEKITRTLQIILEVVPEEDKL
B1: the binding result is “no binding”.
